Among the data in the supplement of paper PMC10849652 are log2 fold change values, retold here.

Amino acid sequences for entries named in this document (tags omitted). A change or cut given only in a name is not applied to a line headed by its entry.
UniProt Q9BRQ8: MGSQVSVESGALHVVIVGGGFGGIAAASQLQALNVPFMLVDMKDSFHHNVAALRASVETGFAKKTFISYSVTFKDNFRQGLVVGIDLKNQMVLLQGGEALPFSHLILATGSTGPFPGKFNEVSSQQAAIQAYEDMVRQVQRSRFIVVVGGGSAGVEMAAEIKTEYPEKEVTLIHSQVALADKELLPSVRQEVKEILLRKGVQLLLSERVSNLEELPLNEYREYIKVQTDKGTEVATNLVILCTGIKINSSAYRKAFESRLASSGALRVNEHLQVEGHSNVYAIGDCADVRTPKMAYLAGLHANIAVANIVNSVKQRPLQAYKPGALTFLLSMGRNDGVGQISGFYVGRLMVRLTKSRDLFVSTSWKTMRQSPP
UniProt O00116: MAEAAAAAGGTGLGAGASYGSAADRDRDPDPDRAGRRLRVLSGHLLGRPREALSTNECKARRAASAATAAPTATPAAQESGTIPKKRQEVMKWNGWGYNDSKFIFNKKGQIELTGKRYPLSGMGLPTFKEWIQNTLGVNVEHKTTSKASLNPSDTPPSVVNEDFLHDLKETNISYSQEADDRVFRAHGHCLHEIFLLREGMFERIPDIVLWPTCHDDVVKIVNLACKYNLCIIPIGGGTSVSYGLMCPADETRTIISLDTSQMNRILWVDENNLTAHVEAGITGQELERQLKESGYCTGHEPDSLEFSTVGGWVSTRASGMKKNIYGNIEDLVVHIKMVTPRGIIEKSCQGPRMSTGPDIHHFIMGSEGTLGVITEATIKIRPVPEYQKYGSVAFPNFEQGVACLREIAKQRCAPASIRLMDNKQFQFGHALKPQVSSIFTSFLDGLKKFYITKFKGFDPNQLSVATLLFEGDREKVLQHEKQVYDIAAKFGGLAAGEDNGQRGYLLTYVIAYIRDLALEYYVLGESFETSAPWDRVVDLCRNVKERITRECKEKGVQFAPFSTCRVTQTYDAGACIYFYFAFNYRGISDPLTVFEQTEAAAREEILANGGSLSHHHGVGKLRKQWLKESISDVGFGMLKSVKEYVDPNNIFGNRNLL
UniProt P55263: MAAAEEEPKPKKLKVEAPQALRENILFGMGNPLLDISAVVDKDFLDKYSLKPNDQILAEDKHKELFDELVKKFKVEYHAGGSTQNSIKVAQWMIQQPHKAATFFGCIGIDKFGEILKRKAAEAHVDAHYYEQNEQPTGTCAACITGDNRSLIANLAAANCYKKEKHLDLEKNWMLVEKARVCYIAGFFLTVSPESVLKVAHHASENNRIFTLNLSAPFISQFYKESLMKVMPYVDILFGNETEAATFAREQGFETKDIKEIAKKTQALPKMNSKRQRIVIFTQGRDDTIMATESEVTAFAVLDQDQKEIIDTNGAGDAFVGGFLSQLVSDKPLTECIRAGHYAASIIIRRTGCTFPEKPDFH
UniProt P61163, whole entry, looked up: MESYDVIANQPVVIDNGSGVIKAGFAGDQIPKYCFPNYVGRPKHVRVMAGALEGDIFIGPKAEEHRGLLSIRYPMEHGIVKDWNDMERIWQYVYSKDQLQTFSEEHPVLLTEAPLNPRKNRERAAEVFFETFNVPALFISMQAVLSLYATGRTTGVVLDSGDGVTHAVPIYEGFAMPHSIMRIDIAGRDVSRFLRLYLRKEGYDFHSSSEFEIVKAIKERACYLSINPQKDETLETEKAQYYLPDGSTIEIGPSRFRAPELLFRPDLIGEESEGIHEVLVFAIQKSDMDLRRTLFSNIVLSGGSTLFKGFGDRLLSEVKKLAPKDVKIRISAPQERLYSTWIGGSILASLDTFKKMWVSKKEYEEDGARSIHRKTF
UniProt Q7Z6V5: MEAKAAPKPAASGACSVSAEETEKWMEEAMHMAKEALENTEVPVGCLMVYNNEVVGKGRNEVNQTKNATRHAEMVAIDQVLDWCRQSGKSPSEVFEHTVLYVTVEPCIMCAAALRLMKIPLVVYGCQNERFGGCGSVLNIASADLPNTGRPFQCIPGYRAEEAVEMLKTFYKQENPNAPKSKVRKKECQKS
UniProt Q99943: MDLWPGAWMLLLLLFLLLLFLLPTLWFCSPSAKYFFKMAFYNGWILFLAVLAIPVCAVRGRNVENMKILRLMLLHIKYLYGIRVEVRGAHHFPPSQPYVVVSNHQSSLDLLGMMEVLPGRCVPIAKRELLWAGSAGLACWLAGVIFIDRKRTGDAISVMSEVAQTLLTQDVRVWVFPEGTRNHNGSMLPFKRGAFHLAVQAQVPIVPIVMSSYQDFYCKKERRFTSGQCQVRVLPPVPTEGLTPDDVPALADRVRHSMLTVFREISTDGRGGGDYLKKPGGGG
UniProt P42025, whole entry, looked up: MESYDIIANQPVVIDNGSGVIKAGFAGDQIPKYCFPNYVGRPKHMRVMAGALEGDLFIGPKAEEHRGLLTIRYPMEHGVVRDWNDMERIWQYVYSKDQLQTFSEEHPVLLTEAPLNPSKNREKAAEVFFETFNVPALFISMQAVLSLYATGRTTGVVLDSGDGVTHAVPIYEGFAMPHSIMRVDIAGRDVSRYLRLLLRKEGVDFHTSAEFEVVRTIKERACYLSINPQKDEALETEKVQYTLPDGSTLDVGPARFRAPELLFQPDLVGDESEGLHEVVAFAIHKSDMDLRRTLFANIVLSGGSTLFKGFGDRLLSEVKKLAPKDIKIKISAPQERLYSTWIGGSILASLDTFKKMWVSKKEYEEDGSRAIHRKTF
UniProt Q03154: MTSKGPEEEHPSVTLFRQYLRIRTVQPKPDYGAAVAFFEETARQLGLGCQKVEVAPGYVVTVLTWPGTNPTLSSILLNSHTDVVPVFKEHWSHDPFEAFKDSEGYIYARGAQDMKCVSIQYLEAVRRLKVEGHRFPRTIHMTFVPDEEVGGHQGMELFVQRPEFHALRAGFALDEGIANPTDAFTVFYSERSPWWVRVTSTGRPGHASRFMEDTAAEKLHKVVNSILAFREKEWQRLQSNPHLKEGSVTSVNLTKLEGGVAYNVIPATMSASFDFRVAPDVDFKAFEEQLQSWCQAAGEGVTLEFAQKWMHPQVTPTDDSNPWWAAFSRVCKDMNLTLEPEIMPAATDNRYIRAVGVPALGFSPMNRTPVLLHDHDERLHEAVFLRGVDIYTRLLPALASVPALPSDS
UniProt O95433, whole entry, looked up: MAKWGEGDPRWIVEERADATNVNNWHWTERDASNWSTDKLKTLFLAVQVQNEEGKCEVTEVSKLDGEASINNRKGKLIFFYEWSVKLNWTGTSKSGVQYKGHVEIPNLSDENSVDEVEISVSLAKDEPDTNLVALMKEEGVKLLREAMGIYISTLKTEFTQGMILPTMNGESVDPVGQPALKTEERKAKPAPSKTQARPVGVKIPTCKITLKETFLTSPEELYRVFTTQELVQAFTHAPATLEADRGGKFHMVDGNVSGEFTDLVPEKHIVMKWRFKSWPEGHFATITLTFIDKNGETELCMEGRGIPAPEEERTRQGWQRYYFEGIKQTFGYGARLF
UniProt Q96EY9: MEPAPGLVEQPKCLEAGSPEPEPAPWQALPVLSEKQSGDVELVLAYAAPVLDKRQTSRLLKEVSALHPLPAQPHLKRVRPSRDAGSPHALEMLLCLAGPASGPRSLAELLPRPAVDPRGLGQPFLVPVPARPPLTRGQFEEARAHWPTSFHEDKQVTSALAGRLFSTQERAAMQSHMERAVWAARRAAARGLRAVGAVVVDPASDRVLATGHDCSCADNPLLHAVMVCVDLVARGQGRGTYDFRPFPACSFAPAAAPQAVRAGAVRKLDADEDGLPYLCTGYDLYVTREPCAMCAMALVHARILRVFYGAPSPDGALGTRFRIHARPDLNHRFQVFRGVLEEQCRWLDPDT
UniProt Q13443: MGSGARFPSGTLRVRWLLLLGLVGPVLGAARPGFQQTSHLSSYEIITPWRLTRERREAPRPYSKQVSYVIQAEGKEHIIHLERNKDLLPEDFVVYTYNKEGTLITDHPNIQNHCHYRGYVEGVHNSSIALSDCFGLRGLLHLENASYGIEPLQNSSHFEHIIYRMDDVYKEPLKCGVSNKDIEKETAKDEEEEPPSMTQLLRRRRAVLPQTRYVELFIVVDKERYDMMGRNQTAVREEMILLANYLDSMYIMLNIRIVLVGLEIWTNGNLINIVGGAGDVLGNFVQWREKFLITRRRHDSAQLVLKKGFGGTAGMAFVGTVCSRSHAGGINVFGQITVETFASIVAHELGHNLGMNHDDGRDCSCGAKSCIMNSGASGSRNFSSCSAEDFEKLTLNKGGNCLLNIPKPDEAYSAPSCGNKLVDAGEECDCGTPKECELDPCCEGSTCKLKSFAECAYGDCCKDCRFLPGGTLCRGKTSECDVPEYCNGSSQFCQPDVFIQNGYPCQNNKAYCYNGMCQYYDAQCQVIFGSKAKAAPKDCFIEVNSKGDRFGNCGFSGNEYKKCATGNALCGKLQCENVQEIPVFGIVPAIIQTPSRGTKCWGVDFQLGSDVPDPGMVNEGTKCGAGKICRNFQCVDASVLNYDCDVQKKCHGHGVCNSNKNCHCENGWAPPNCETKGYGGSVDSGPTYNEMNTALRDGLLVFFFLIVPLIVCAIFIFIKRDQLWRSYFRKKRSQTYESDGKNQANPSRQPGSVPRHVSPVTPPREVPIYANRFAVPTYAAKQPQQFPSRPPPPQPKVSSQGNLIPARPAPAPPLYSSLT
UniProt Q6ULP2: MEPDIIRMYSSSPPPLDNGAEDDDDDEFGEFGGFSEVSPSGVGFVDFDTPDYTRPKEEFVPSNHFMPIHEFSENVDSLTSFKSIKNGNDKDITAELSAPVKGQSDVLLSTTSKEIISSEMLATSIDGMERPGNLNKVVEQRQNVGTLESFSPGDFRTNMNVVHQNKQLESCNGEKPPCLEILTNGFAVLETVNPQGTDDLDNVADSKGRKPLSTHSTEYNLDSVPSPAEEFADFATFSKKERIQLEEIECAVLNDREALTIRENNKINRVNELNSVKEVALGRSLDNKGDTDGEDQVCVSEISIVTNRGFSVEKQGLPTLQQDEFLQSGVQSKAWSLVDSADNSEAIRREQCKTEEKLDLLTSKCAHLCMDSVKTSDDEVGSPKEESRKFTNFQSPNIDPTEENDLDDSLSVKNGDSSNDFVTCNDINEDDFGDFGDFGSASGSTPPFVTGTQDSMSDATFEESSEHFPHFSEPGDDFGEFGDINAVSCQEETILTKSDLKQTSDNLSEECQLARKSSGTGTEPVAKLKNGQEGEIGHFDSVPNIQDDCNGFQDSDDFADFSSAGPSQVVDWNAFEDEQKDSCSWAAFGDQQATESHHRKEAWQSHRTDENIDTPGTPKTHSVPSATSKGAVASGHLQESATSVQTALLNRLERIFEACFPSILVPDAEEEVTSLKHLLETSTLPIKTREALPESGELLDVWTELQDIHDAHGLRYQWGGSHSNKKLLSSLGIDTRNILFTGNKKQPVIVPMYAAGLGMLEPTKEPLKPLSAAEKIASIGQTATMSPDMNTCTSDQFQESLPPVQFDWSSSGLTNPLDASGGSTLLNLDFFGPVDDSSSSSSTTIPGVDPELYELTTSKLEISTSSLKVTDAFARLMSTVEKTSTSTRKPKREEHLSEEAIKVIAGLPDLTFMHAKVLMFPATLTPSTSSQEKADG
UniProt P00813: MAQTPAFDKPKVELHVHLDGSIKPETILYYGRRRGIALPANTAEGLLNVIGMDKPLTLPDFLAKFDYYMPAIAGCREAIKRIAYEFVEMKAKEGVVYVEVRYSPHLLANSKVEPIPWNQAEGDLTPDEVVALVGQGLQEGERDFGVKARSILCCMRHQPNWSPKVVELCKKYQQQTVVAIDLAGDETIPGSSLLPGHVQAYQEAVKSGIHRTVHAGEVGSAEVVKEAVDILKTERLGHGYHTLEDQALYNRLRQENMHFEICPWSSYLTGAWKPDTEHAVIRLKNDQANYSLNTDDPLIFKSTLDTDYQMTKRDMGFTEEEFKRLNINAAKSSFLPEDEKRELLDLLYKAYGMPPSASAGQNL
UniProt Q9NZ32, whole entry, looked up: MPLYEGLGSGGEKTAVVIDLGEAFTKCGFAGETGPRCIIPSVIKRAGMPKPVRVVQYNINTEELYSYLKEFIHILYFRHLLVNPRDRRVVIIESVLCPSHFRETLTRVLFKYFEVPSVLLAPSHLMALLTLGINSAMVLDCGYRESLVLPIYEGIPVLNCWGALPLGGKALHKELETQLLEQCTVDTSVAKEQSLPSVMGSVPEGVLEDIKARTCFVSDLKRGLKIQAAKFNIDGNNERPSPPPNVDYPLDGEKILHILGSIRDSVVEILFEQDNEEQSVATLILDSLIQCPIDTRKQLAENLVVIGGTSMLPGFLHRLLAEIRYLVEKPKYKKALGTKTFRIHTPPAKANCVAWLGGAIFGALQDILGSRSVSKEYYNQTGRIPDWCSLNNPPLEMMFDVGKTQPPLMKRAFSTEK

The other results are listed elsewhere or left out.

What all share (experiment): log2 fold change, soluble protein after heating vs DMSO (PISA); higher = thermal stabilisation; K562 lysate, 10 uM; active = over 0.2 and 3.5 SD of the protein, either way, in both replicates (recomputed)
Compound in one experiment: CCCS(=O)(=O)Nc1ccc(F)c(C(=O)c2c[nH]c3ncc(-c4ccc(Cl)cc4)cc23)c1F [vemurafenib]
An outline of the steps:
(§1)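 The values are log-two fold changes in thermal stability compared with solvent controls and come from duplicates. They were obtained by TMTpro 16plex LC-MS/MS, with channel sums equalised, on the supernatant after 21,000xg for 90 min. That supernatant came from crude K562 extract at 1 mg/mL protein treated with 10 μM compound for 30 min, heated for 3 min across 48°C-58°C, pooled and brought to 0.5% NP-40 at 4°C.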

Compound in experiment [1]: CCCS(=O)(=O)Nc1ccc(F)c(C(=O)c2c[nH]c3ncc(Cl)cc23)c1F
An outline of the steps: as §1

Compound in the next experiment: CCN(CCCOc1ccc2c(Nc3cc(CC(=O)Nc4cccc(F)c4)[nH]n3)ncnc2c1)CCOP(=O)(O)O [barasertib]
The procedure, abridged:
as §1

Compound in experiment [2]: CC[C@@H]1C(=O)N(C)c2cnc(Nc3ccc(C(=O)NC4CCN(C)CC4)cc3OC)nc2N1C1CCCC1
The procedure, abridged:
as §1

Compound in a further experiment: CC[C@@H]1C(=O)N(C)c2cnc(Nc3ccc(C(=O)N[C@H]4CC[C@H](N5CCN(CC6CC6)CC5)CC4)cc3OC)nc2N1C(C)C [volasertib]
An outline of the steps: as §1

Compound in experiment [3]: CCn1c(C(=O)N(C2CC2)C2CC2)cc2c3c(ncn3C)c(Nc3cc(C)n(C)n3)nc21
An outline of the steps:
as §1

Compound in experiment [4]: CCn1cc(-c2ccnc3[nH]c(-c4cccc(CN(C)C)c4)cc23)c(-c2ccc(NC(=O)N(C)C)cc2)n1
The procedure, abridged: as §1

Compound in experiment [5]: CN1CCC(CNc2ccc3ncc(-c4cccc(OC(F)(F)F)c4)n3n2)CC1
The procedure, abridged: as §1

Compound in a further experiment: CN1CCN(CCOc2cc(OC3CCOCC3)c3c(Nc4c(Cl)ccc5c4OCO5)ncnc3c2)CC1 [saracatinib]
An outline of the steps:
as §1

Compound in the next experiment: CN1CCN(c2nc(C3=C(c4c[nH]c5ccccc45)C(=O)NC3=O)c3ccccc3n2)CC1 [sotrastaurin]
The procedure, abridged: as §1

For AIFM2 (UniProt Q9BRQ8), the log2 fold change is inactive: -0.19 with vemurafenib; inactive: 0.091 in experiment [1]; inactive: -0.029 with barasertib; inactive: -0.018 in experiment [2]; inactive: -0.004 with volasertib; inactive: -0.089 in experiment [3]. Besides, the log2 fold change is inactive: -0.057 in experiment [4], inactive: 0.149 in experiment [5], inactive: -0.062 with saracatinib and inactive: 0.036 with sotrastaurin.

As to AGPS (UniProt O00116), the log2 fold change with vemurafenib was inactive: 0.028; in [1], inactive: 0.008; with barasertib, inactive: -0.021; in experiment [2], inactive: 0.06; in the experiment with volasertib, inactive: 0.011; in experiment [3] it was inactive: 0.025. For the same target, the log2 fold change was inactive: -0.082 in experiment [4], inactive: 0.012 in experiment [5], inactive: -0.009 in the experiment with saracatinib and inactive: -0.016 in the experiment with sotrastaurin.

Regarding ADK (UniProt P55263), the log2 fold change is inactive: -0.052 in the experiment with vemurafenib; inactive: -0.036 in experiment [1]; inactive: -0.054 with barasertib; active: 0.458 in experiment [2]; active: 0.437 with volasertib; inactive: -0.027 in [3]. For the same target, the log2 fold change in [4] was inactive: 0.044; in experiment [5], inactive: 0.155; with saracatinib, inactive: 0.043; with sotrastaurin, inactive: 0.343.

Turning to ACTR1A (UniProt P61163), the log2 fold change was inactive: 0 with vemurafenib; inactive: 0.017 in experiment [1]; inactive: -0.015 in the experiment with barasertib; inactive: 0.017 in experiment [2]; inactive: 0.013 with volasertib; inactive: -0.03 in experiment [3]. Besides, the log2 fold change in experiment [4] is inactive: -0.001; in experiment [5] it was inactive: 0.05; with saracatinib, inactive: -0.009; in the experiment with sotrastaurin, inactive: -0.023.

Turning to ADAT2 (UniProt Q7Z6V5), the log2 fold change was inactive: -0.07 with vemurafenib; inactive: 0.04 in [1]; inactive: -0.035 with barasertib; inactive: -0.035 in experiment [2]; inactive: -0.013 with volasertib; inactive: -0.03 in experiment [3]. Besides, the log2 fold change is inactive: 0.007 in experiment [4], inactive: 0.037 in [5], inactive: -0.026 with saracatinib and inactive: -0.014 in the experiment with sotrastaurin.

As to AGPAT1 (UniProt Q99943), the log2 fold change is inactive: 0.008 with vemurafenib; inactive: 0.016 in experiment [1]; inactive: 0.038 in the experiment with barasertib; inactive: -0.013 in [2]; inactive: 0.006 with volasertib; inactive: -0.004 in [3]. Besides, the log2 fold change in experiment [4] is inactive: 0.068; in [5], inactive: -0.049; in the experiment with saracatinib, inactive: 0.038; with sotrastaurin, inactive: -0.009.

ACTR1B (UniProt P42025): the log2 fold change with vemurafenib was inactive: -0.038; in experiment [1], inactive: 0.038; with barasertib it was inactive: 0.024; in experiment [2] it was inactive: 0.059; with volasertib, inactive: -0.001; in experiment [3], inactive: -0.018. In addition, the log2 fold change in experiment [4] is inactive: -0.099; in experiment [5], inactive: 0.038; in the experiment with saracatinib, inactive: 0.019; with sotrastaurin it was inactive: 0.046.

On to ACY1 (UniProt Q03154), for which the log2 fold change with vemurafenib was inactive: -0.025; in experiment [1] it was inactive: -0.001; with barasertib, inactive: 0.062; in experiment [2], inactive: -0.001; with volasertib, inactive: 0.01; in [3] it was inactive: 0.009. Moreover, the log2 fold change was inactive: -0.034 in experiment [4], inactive: 0.06 in experiment [5], inactive: 0.028 with saracatinib and inactive: 0.022 in the experiment with sotrastaurin.

As to AHSA1 (UniProt O95433), the log2 fold change with vemurafenib is inactive: -0.005; in experiment [1], inactive: 0.008; with barasertib it was inactive: -0.028; in experiment [2], inactive: -0.009; in the experiment with volasertib, inactive: -0.005; in experiment [3] it was inactive: -0.021. Moreover, the log2 fold change in [4] is inactive: 0.005; in experiment [5], inactive: 0.035; in the experiment with saracatinib, inactive: -0.009; in the experiment with sotrastaurin, inactive: -0.001.

For the target ACTR2 (UniProt P61160), the log2 fold change was inactive: -0.003 with vemurafenib; inactive: -0.01 in [1]; inactive: -0.012 with barasertib; inactive: 0.017 in experiment [2]; inactive: 0.021 with volasertib; inactive: -0.017 in experiment [3]. For the same target, the log2 fold change in experiment [4] was inactive: -0.01; in [5] it was inactive: 0.018; in the experiment with saracatinib, inactive: -0.028; with sotrastaurin, inactive: 0.011.

Consider ADAT3 (UniProt Q96EY9), for which the log2 fold change was inactive: 0.018 with vemurafenib; inactive: -0.029 in experiment [1]; inactive: -0.01 with barasertib; inactive: 0.083 in [2]; inactive: 0.007 in the experiment with volasertib; inactive: 0.008 in experiment [3]. Moreover, the log2 fold change is inactive: 0.108 in [4], inactive: 0.029 in [5], inactive: 0.002 with saracatinib and inactive: 0.008 with sotrastaurin.

For the target ADAM9 (UniProt Q13443), the log2 fold change with vemurafenib was inactive: 0.08; in experiment [1], inactive: -0.01; in the experiment with barasertib, inactive: -0.013; in experiment [2], inactive: 0.092; in the experiment with volasertib it was inactive: 0.002; in experiment [3], inactive: -0.005. Further, the log2 fold change in experiment [4] was inactive: 0.058; in experiment [5] it was inactive: 0.047; with saracatinib, inactive: 0.02; with sotrastaurin it was inactive: -0.016.

In the case of AFTPH isoform 9 (UniProt Q6ULP2), the log2 fold change was inactive: -0.01 with vemurafenib; inactive: 0.041 in experiment [1]; inactive: 0.064 with barasertib; inactive: 0.124 in experiment [2]; inactive: 0.017 with volasertib; inactive: 0.1 in experiment [3]. Also, the log2 fold change was inactive: 0.007 in experiment [4], inactive: -0.029 in experiment [5], inactive: -0.01 with saracatinib and inactive: -0.01 in the experiment with sotrastaurin.

As to ADA (UniProt P00813), the log2 fold change in the experiment with vemurafenib was inactive: -0.002; in experiment [1], inactive: -0.013; in the experiment with barasertib it was inactive: 0.007; in experiment [2] it was inactive: 0.018; with volasertib, inactive: 0.014; in [3], inactive: -0.015. Moreover, the log2 fold change in [4] was inactive: -0.047; in [5], inactive: 0.108; in the experiment with saracatinib it was inactive: -0.029; with sotrastaurin, inactive: 0.061.

Turning to ACTR10 (UniProt Q9NZ32), the log2 fold change was inactive: -0.028 with vemurafenib; inactive: 0.071 in experiment [1]; inactive: 0.009 with barasertib; inactive: 0.022 in experiment [2]; inactive: 0.021 with volasertib; inactive: -0.037 in experiment [3]. For the same target, the log2 fold change in experiment [4] was inactive: 0.043; in [5] it was inactive: 0.05; with saracatinib, inactive: -0.021; in the experiment with sotrastaurin it was inactive: -0.096.
